According to the supplement of paper PMC7666118:
Some of the results follow.

Chains of the proteins cited; added tags and fusions are not shown. Lines headed by an entry give the natural chain unless they say otherwise; changes in a name come on top.
UniProt P48147: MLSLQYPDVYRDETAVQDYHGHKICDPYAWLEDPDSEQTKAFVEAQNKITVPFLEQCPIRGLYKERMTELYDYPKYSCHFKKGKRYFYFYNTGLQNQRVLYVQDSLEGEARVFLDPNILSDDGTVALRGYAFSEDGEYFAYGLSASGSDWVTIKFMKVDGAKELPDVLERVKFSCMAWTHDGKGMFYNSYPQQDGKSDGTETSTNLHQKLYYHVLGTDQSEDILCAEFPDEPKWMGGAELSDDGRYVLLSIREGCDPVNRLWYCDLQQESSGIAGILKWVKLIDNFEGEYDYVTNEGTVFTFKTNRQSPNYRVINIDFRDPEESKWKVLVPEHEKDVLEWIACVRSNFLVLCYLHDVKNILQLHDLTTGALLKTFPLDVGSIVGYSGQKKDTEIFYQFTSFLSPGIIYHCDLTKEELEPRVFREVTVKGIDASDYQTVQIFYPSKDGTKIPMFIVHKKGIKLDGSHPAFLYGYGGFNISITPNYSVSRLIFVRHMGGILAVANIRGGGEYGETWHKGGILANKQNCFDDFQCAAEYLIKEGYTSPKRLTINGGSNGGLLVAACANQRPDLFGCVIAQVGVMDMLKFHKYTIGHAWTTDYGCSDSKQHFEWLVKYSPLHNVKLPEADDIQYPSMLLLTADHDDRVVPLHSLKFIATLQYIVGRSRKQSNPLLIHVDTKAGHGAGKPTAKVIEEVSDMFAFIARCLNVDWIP
UniProt P79522: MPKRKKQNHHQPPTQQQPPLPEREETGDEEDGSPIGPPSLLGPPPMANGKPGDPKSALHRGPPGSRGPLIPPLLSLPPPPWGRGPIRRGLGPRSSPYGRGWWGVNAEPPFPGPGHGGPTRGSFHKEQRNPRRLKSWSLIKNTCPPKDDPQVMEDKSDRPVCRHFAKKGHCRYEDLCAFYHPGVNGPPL
UniProt O00411: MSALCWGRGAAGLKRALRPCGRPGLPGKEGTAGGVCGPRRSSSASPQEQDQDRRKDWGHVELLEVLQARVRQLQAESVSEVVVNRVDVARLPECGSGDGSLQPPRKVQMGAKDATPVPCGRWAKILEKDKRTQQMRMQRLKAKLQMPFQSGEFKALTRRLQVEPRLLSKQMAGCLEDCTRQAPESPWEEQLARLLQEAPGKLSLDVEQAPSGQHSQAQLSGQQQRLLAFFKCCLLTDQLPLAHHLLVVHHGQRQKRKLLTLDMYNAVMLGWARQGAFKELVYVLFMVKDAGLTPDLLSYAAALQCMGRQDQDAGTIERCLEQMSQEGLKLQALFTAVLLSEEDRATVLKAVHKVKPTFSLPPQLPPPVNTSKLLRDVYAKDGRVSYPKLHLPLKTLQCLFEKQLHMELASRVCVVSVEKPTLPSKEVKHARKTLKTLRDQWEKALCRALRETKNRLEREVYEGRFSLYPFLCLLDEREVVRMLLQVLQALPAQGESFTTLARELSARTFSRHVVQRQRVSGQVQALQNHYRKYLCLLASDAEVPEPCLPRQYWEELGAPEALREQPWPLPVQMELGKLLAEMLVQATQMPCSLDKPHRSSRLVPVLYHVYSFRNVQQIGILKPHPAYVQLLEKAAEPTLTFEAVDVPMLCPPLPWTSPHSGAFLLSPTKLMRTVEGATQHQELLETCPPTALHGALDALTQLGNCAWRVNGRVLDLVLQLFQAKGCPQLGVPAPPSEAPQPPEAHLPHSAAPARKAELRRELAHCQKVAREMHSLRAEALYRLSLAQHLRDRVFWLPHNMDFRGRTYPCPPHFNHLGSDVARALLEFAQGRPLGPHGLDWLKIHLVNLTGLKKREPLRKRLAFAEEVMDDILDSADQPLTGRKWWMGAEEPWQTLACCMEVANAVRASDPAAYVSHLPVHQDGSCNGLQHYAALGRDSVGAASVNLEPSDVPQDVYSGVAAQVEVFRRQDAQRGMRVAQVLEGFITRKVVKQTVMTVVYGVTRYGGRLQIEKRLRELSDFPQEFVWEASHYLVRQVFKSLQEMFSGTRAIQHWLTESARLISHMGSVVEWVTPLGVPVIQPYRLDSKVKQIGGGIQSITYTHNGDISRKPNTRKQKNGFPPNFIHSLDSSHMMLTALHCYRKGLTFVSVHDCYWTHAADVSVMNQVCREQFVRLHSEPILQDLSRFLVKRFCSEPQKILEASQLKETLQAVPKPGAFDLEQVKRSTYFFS
UniProt P54278: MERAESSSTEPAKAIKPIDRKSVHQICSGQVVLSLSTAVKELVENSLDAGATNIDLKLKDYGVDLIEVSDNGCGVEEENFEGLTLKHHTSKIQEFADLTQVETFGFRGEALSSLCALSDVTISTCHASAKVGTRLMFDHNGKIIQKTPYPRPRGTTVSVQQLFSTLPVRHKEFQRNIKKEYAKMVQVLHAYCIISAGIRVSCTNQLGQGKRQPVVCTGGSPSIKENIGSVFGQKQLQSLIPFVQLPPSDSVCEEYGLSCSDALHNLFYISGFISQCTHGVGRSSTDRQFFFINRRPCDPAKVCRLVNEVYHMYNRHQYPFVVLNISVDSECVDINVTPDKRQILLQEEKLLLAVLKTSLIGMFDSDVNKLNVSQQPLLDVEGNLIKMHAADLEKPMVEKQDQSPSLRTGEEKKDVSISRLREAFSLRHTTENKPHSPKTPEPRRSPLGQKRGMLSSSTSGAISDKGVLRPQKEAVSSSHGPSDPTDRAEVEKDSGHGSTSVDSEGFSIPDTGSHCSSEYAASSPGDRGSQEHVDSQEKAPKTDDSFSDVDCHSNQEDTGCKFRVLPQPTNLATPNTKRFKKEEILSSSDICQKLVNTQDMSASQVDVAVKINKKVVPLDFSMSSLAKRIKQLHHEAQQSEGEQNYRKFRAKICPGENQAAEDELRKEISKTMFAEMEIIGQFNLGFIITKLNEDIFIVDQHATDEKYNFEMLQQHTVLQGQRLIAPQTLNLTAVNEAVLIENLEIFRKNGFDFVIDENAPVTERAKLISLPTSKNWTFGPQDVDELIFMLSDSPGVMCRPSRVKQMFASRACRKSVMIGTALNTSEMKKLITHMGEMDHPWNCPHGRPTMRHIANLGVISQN
UniProt Q9NRF9: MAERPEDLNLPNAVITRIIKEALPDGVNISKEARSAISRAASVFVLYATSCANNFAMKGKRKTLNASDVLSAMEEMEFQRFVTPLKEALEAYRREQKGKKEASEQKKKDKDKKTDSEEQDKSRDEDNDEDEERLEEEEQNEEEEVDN
UniProt Q92733: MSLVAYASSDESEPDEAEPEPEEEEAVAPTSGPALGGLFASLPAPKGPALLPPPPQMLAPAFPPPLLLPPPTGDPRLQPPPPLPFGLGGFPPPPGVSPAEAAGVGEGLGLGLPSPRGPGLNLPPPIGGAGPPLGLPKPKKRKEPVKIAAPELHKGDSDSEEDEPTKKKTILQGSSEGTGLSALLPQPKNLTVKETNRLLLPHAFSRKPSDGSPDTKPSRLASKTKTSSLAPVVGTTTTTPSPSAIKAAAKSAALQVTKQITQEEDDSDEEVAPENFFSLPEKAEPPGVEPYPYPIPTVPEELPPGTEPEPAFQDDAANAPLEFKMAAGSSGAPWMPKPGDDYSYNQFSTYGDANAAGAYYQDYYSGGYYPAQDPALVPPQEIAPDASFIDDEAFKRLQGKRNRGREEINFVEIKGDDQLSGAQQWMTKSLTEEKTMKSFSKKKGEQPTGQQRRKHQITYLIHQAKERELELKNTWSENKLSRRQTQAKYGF
UniProt Q9UHN1: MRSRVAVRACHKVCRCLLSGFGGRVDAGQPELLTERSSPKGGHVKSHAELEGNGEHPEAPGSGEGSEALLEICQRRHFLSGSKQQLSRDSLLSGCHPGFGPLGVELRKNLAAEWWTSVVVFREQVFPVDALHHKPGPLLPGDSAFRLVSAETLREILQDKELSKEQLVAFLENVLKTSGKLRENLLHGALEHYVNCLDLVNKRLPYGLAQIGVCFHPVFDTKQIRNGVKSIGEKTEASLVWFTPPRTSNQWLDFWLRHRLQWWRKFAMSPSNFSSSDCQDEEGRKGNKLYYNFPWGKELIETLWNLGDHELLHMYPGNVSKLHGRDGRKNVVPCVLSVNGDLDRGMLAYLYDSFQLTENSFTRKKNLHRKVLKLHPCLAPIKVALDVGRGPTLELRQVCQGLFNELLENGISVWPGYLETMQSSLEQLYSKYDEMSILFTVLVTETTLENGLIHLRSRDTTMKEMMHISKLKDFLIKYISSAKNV
UniProt P09884: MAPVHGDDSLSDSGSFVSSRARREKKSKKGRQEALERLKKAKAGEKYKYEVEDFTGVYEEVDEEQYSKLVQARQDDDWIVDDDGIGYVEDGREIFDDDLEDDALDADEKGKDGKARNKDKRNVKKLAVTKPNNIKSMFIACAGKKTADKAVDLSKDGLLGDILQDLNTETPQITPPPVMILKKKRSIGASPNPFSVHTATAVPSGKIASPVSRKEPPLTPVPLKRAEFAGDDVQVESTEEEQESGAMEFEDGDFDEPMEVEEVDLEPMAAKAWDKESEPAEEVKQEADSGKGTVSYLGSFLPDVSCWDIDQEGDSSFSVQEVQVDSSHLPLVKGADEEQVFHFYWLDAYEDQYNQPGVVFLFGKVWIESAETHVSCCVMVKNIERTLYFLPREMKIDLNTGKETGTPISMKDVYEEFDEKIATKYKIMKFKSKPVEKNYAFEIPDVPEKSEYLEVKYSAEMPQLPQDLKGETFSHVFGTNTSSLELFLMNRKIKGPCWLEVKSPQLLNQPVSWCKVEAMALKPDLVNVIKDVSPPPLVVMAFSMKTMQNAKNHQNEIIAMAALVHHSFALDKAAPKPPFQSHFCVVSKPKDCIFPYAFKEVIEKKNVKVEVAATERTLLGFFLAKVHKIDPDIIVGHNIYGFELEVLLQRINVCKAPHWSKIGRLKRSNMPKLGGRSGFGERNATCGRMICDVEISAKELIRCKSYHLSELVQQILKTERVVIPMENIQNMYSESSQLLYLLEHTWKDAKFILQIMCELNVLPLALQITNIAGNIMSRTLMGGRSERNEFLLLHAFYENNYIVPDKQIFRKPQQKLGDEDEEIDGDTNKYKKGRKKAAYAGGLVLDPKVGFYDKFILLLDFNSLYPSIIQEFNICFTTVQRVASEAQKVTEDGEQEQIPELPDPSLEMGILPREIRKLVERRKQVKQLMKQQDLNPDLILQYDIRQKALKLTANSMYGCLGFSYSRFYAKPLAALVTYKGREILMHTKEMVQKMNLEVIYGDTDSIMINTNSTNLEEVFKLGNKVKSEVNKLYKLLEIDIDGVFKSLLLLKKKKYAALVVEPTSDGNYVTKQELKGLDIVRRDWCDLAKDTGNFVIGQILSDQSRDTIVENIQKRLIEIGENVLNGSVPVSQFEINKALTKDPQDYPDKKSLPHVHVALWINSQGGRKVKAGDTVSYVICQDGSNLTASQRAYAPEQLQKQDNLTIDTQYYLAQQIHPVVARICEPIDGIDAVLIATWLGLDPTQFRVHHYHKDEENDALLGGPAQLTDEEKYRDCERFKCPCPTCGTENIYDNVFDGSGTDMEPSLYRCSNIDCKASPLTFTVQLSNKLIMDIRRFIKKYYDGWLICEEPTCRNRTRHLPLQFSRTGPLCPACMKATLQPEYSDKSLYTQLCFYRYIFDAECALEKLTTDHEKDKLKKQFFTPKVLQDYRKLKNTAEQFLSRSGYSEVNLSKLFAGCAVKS
UniProt Q99436: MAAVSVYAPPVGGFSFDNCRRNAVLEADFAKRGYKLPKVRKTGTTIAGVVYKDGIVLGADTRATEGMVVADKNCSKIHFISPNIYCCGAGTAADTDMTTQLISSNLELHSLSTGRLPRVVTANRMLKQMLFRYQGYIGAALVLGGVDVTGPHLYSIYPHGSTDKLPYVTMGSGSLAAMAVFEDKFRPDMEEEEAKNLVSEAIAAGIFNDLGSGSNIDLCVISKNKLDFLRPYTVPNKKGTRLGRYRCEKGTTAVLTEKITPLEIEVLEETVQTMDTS
UniProt O43395: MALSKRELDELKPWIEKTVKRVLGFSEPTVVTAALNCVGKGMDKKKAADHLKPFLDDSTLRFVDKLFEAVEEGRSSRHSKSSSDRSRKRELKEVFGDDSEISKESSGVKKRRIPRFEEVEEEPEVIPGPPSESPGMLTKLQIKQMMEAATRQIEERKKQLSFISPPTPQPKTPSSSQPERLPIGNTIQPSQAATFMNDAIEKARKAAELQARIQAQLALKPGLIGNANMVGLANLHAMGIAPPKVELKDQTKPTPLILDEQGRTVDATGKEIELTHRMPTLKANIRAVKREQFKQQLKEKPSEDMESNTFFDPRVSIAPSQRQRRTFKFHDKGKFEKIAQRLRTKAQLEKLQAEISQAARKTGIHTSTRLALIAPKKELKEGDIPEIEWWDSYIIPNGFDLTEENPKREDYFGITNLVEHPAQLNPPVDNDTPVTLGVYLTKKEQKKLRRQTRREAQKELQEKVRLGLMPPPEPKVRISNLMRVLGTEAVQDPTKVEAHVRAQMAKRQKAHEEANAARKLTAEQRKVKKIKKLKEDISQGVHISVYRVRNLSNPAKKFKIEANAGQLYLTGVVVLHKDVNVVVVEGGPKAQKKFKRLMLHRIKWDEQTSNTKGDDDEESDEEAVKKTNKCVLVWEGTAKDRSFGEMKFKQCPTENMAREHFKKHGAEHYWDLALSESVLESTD

Compound: COc1ccc(Cn2ccc3cc(C)c(C(=O)NO)cc32)cc1
Experiment: dose-dependent thermal stabilisation call (2D-TPP, DLPTP, 10% FDR) (binary (1 = stabilised)); higher = stabilised by the compound
Conditions: system: HL-60 intact cells; concentration range 0.04-10 µM
Experimental: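 2D thermal proteome profiling in intact HL-60 cells treated with BRD-3811 (0, 0.04, 0.29, 2, 10 uM) for 90 min at 37 C, then heated 3 min at one of 12 temperatures (42-63.9 C). Soluble protein was quantified by TMT10 MS. The value is the DLPTP call of the paper: dose-dependent thermal stabilisation over all temperatures at 10% FDR (F-test of a dose-response against a flat model); one experiment, one call per tested protein.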

Target	dose-dependent thermal stabilisation call
PSMA3 (UniProt P25788)	inactive: 0
PREP (UniProt P48147)	inactive: 0
POLR3A (UniProt O14802)	inactive: 0
PSPH (UniProt P78330)	inactive: 0
PSMD7 (UniProt P51665)	inactive: 0
PSAT1 (UniProt Q9Y617)	inactive: 0
PRDX4 (UniProt Q13162)	inactive: 0
PRKACA (UniProt P17612)	inactive: 0
PRR3 (UniProt P79522)	inactive: 0
PNO1 (UniProt Q9NRX1)	inactive: 0
POLRMT (UniProt O00411)	inactive: 0
PSMD3 (UniProt O43242)	inactive: 0
PMS2 (UniProt P54278)	inactive: 0
PRPF40A (UniProt O75400)	inactive: 0
POFUT1 (UniProt Q9H488)	inactive: 0
POLR1D	inactive: 0
POLR3C (UniProt Q9BUI4)	inactive: 0
PRDX3 (UniProt P30048)	active: 1

Target	dose-dependent thermal stabilisation call
PTPN12 (UniProt Q05209)	inactive: 0
POLE3 (UniProt Q9NRF9)	inactive: 0
POP5 (UniProt Q969H6)	inactive: 0
PPWD1 (UniProt Q96BP3)	inactive: 0
PRIM1 (UniProt P49642)	inactive: 0
PRPF31 (UniProt Q8WWY3)	inactive: 0
PRCC (UniProt Q92733)	inactive: 0
PPFIBP2 (UniProt Q8ND30)	inactive: 0
PRMT6 (UniProt Q96LA8)	inactive: 0
PRKAA1 (UniProt Q13131)	inactive: 0
POLG2 (UniProt Q9UHN1)	inactive: 0
PMPCA (UniProt Q10713)	inactive: 0
PPA2 (UniProt Q9H2U2)	inactive: 0
PTPN1 (UniProt P18031)	inactive: 0
POLA1 (UniProt P09884)	inactive: 0
PSMB7 (UniProt Q99436)	inactive: 0
PRUNE (UniProt Q86TP1)	inactive: 0
PRPF3 (UniProt O43395)	inactive: 0

Quoted from the listing.
Entry for PRPF31 (UniProt Q8WWY3) under dose-dependent thermal stabilisation call: inactive: 0
Entry for PPFIBP2 (UniProt Q8ND30) under dose-dependent thermal stabilisation call: inactive: 0
